Laboratory results taken from patent US20200109196A1.
Numbering of substitutions follows the chain as printed. These are yes or no findings as the source states them, for the method shown. Some results given as binding are weak or reduced against the parent protein; the word gives no strength.

Chains of the proteins cited; added tags and fusions are not shown. Lines headed by an entry give the natural chain unless they say otherwise; changes in a name come on top. Residues count along the entry.
UniProt P13688: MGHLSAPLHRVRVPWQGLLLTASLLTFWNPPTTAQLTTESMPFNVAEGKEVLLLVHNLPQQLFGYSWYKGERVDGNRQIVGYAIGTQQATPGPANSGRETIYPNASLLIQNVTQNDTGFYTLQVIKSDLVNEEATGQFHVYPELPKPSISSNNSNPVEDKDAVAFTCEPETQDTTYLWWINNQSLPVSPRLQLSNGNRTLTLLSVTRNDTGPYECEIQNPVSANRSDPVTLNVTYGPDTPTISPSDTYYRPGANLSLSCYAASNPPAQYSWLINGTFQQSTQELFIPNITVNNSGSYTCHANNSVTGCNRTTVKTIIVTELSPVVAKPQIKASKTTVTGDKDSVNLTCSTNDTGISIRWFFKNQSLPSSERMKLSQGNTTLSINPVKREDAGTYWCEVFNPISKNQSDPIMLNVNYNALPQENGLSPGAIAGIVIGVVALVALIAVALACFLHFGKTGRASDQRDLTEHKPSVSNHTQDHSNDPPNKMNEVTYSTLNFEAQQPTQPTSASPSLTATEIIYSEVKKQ
recombinant CEACAM1-Fc (IgG4) protein (Mogam, in-house production): residues 35-428 of P13688

B1: 4R9 (antibody, human IgG4 S228P, lambda, V domains shown)
VH: EVQLLESGGGLVQPGGSLRLSCAASGFTFSNYAMSWVRQAPGKGLEWVSVISHGGGSIYYADSVKGRLTISRDNSKNTLYLQMNSLRAEDTAVYYCARDPTKGYAPTFDYWGQGTLVTVSS
VL: QSVLTQPPSASGTPGQRVTISCSGSSSNIGNNYVSWYQQLPGTAPKLLIYADSRRPSGVPDRFSGSKSGTSASLAISGLRSEDEADYYCGAWDLSLNGYVFGGGTKLTVLG
B2: 4R9_H2-2 (antibody, human IgG4 S228P, lambda, V domains shown)
VH: B1 VH with T107L
VL: B1 VL
B3: 4R26 (antibody, human IgG4 S228P, lambda, V domains shown)
VH: B1 VH
VL: B1 VL with R54K, P56L, L94G, S95R
B4: 4R9_H4-n20 (antibody, human IgG4 S228P, lambda, V domains shown)
VH: B1 VH with T28N
VL: B1 VL
B5: 1-23 (antibody, human IgG4 S228P, lambda, V domains shown)
VH: B1 VH
VL: B1 VL with R54K, L94V, L96H
B6: 4R20 (antibody, human IgG4 S228P, lambda, V domains shown)
VH: B1 VH
VL: B1 VL with L94A, L96Y
B7: 1-19 (antibody, human IgG4 S228P, lambda, V domains shown)
VH: B1 VH
VL: B1 VL with R54K
B8: 3-27 (antibody, human IgG4 S228P, lambda, V domains shown)
VH: B1 VH
VL: B1 VL with R54K, L94S, S95M, L96G
B9: 3-7 (antibody, human IgG4 S228P, lambda, V domains shown)
VH: B1 VH
VL: B1 VL with R54K, L94Q
B10: C15 (antibody, human IgG4 S228P, lambda, V domains shown)
VH: EVQLLESGGGLVQPGGSLRLSCAASGFTFSSYSMSWVRQAPGKGLEWVSSISPNGGNKYYADSVKGRFTISRDNSKNTLYLQMNSLGAEDTAVYYCAKDPYNIYQPLFDYWGQGTLVTVSS
VL: B1 VL with P8L, S35N, D52N, R54N, D83E, A91T, L94A, N97S, G98A

target: human CEACAM1 expressed on the cell surface (CEACAM1-Jurkat T cells; HEK293 cells transfected with human CEACAM1 plasmid vector) (human) (UniProt P13688); assay: flow cytometry on transfected HEK293 cells (GFP+ gate), PE goat anti-huIgG4 [b]

binding | Binder
binds | B1
binds | B2
binds | B3
binds | B4

target: N+A1+B+A2; assay: ELISA on coated CEACAM1 domain protein, one antibody dilution, HRP anti-human IgG, OD450

binding | Binder
binds | B1
binds | B5
binds | B6
binds | B7
binds | B3
binds | B8
binds | B9

target: human CEACAM1 expressed on the cell surface (CEACAM1-Jurkat T cells; HEK293 cells transfected with human CEACAM1 plasmid vector) (human) (UniProt P13688); assay: flow cytometry on CEACAM1-Jurkat T cells, PE goat anti-human F(ab)2, MFI [b]

binding | Binder
binds | B1
binds | B2
binds | B3
binds | B4

target: human CEACAM1 expressed on the cell surface (CEACAM1-Jurkat T cells; HEK293 cells transfected with human CEACAM1 plasmid vector) (human) (UniProt P13688); assay: flow cytometry on transfected HEK293 cells (GFP+ gate), PE goat anti-huIgG4 [b), lower row]

binding | Binder
binds | B1
binds | B2
binds | B3
binds | B4

target: recombinant CEACAM1-Fc (IgG4) protein (Mogam, in-house production) (human) (UniProt P13688); assay: ELISA on coated antigen (0.25 µg/ml), antibody 3 µg/ml, HRP anti-human IgG Fab, OD450

binding | Binder
binds | B10

target: recombinant CEACAM1-Fc (IgG4) protein (Mogam, in-house production) (human) (UniProt P13688); assay: ELISA, coated antigen, anti-human IgG Fab-HRP

binding | Binder
binds | B10
